In PubChem BioAssay AID1794845 (National Center for Advancing Translational Sciences (NCATS), 2023):
The whole screen tested about 6,900 compounds, of which fewer than 10 were called active. The call rests on the fitted dose curve; in most records, active means well fitted curve in the direction sought with a large enough effect; inconclusive means small, poorly fitted or top-dose-only effect, or another doubt; inactive means no such curve, though single readings can be large or run the other way. Some of the results follow.

The chains behind the UniProt entries cited, without tags or fusion partners. Where a name states a change or a piece, a line headed by the entry shows the natural chain unless it says otherwise.
UniProt C7C422: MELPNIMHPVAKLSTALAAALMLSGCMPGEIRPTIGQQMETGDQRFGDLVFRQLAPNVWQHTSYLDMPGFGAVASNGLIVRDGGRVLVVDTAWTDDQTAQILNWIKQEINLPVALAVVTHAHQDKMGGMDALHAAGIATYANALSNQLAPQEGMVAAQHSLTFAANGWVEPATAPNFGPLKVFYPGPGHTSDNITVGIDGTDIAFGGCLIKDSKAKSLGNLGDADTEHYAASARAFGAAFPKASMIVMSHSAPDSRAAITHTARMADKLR

These compounds were tested against Metallo-beta-lactamase type 2 (Klebsiella pneumoniae) (UniProt C7C422) (assay: qHTS to identify inhibitors of the New Delhi Metallo-beta-lactamase (NDM): primary screen against the NCATS Gemini Collection). Conditions: NDM-1 enzyme, meropenem hydrolysis, absorbance 300 nm; at 38.4 µM (top of the series) unless noted.
Outline: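 Meropenem hydrolysis (50 uM final) by 2 nM NDM-1 read as 300 nm absorbance after 30 min, following >30 min compound–enzyme preincubation in HEPES pH 7.0 with 1 uM ZnSO4 and 0.01% Tween20.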
Further: % of control where 0% means no effect.

Activity % (negative = inhibition), inactive:
O=C(c1csc2nc(-c3ccc(F)cc3)cn12)N1C[C@H]2CC[C@@H](C1)N2 16.7%
COc1ccc2ccc(OCc3nc(C(=O)N4CCCNC(=O)C4)co3)cc2c1 21.1%
CCc1ccccc1CN1CCCC2(Cc3ccccc3CNC2=O)C1 (stereo not drawn) 0.764%
COCCCn1c(=O)[nH]c2cccnc21 -1.3% [at 77.1 µM]
CNC(=O)CCn1ncc2cc(OCc3ccccc3-c3ccc(F)c(Cl)c3)ccc21 0.373% [at 57.5 µM]
CNc1cc(C)nc(N2CC[C@H](N3CCOCC3)[C@H](CCC(=O)O)C2)n1 -4.91%
O=C(NC1CCCC1)C1c2ccccc2C(=O)N(C2CCCC2)C12CCCCC2 (stereo not drawn) -0.894%
COCCN1CCC(CN(Cc2ccncc2)C(=O)C2CC23CCCC3)CC1 (stereo not drawn) 0.425%
CC(=O)NC1(C)CCN(Cc2ccc(-c3ccc([S+](C)(=O)[O-])cc3)cc2)C1 (stereo not drawn) 1.76% [at 57.5 µM]
c1ccc(CC2=NOC3(CCN(Cc4c[nH]c5ccccc45)CC3)C2)cc1 27.1%
COCc1ccc2c(c1)c(OC(C)(C)C(=O)N1CCN(C)CC1)nn2CCC(C)C 10.7% [at 57.5 µM]
O=C(CCc1conc1-c1ccccc1F)NCc1ccc(Cl)cc1 1.02%
C=CCc1cc(-c2c(-c3ccccc3)ncn2CCOCCO)cc(OC)c1O -0.34%
CC(O)CN1CC2(CCC1=O)CCN(Cc1cncn1C)CC2 (stereo not drawn) 38.1%
Cc1ccccc1CNC(=O)c1ccc2c(c1)C(O)CCCCCN2C (stereo not drawn) 1.89%
CCOc1ccc(CC(=O)N2CCC[C@H]2c2nc(-c3ccc(OC)cc3)no2)cc1 -1.43%
Cc1ccc(CN2CC(Cn3c(C)cnc3-c3ccncc3)C2)o1 9.48%
O=C(CC1CCCC1)N1CCC(Nc2cccnc2)C1 (stereo not drawn) 79.7%
COc1cccc(-c2nnnn2[C@H]2CO[C@H]3[C@@H]2OC[C@@H]3NC(=O)c2ccccc2)c1 -9.9% [at 57.5 µM]
NC(=O)[C@@H](Cc1c[nH]c2ccccc12)NC(=O)C1=C[C@@H](NS(=O)(=O)c2cccs2)[C@@H](O)[C@H](O)C1 1.76%
Cc1ccc2nc(NC(=O)Cn3nc4c(cc3=O)CCCCC4)sc2c1 13.2%
COc1cccc(-c2nc3cc(SC)ccc3cc2CN(C)Cc2ccno2)c1 25.6%
Cc1noc([C@H]2CCN(C(=O)NCc3ccccc3)C[C@H]2NC(=O)C2CCOCC2)n1 8.15%

Ordered by SMILES length (smallest number first): part of the list above.
Activity % (negative = inhibition), inactive:
O=C(CCc1conc1-c1ccccc1F)NCc1ccc(Cl)cc1 1.02%
Cc1ccc2nc(NC(=O)Cn3nc4c(cc3=O)CCCCC4)sc2c1 13.2%
COc1cccc(-c2nnnn2[C@H]2CO[C@H]3[C@@H]2OC[C@@H]3NC(=O)c2ccccc2)c1 -9.9% [at 57.5 µM]
